Measured values taken from US20140135363A1, “PROTON PUMP INHIBITOR FOR USE IN A METHOD OF TREATING DERMATOLOGICAL DISEASES IN CANINE” (BOEHRINGER INGELHEIM VETMEDICA GMBH, priority 2012, published 2014).
At least one structure is not confirmed: it was looked up by name or label, or the drawing left a doubt.

Test system: dogs suffering from skin conditions such as hot spots, atopic dermatitis and eczema
Experiment: Treatment of dogs suffering from skin diseases with topical omeprazole composition
Format: in vivo, dog

In the case of `COc1ccc2[nH]c([S+]([O-])Cc3ncc(C)c(OC)c3C)nc2c1` (stereo not shown) [omeprazole], the “Success of Therapy” value (Dog 1, Westhighland Terrier, Atopic Dermatitis, several affected areas, 1% omeprazole topical once or twice per day, 7 days) is reported as “good”, the “Success of Therapy” value (Dog 2, Mixed breed, Hot spots, 1% omeprazole topical once or twice per day, 5 days) is reported as “healed” and the “Success of Therapy” value (Dog 3, Westhighland Terrier, Dermatitis, several affected areas, 1% omeprazole topical once or twice per day, 7 days) is reported as “improved”. For the same compound, the “Success of Therapy” value (Dog 4, Mixed Breed, Eczema between toes, 1% omeprazole topical once or twice per day, 5 days) was “healed”, the “Success of Therapy” value (Dog 5, Labrador, Eczema between toes, 5% omeprazole topical once or twice per day, 5 days) was “healed” and the “skin condition in more severe cases” value (more severe cases, i.e. dogs with several affected areas) was “improved significantly”. For the same compound, the skin condition (most dogs, after 5 days of treatment with 1 wt % or 5 wt % omeprazole) was “completely disappeared”.
